Measured values published in the supplement of paper PMC3741180, “A Novel High Throughput Biochemical Assay to Evaluate the HuR Protein-RNA Complex Formation” (PLoS ONE, 2013).
The other results are listed elsewhere or left out. Repeats in this data set agree poorly, so a single value says little.

Chains of the proteins cited; added tags and fusions are not shown.
UniProt Q15717, whole entry: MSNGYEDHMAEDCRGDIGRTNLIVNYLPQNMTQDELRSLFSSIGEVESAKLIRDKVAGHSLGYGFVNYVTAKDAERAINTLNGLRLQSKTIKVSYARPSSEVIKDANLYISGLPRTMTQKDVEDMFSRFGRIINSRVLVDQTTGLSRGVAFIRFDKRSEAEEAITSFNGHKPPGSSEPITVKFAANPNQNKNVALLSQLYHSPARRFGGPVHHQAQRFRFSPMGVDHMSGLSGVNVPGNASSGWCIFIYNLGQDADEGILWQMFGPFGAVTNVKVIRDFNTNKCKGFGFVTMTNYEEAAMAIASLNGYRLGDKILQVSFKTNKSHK

Each molecule was assayed against HuR (ELAVL1) - TNFalpha ARE RNA complex (UniProt Q15717) (assay: AlphaScreen HuR-RNA complex signal Z-score relative to positive (Bi-TNF, DMSO) controls (Z-score (SD units of positive control)); higher = more complex signal). Settings: screen stage: primary screen; compound concentration: 25 nM.

SMILES | AlphaScreen HuR-RNA complex signal Z-score
O=C(OCc1ccccc1)c1ccccc1 | 0.174
N=C(N)N/N=C/c1c(Cl)cccc1Cl | -0.836
OC(CCN1CCCCC1)(c1ccccc1)C1CCCCC1 (centres undefined) | -1.07
Cc1cc(O)c(C=O)c2c1C(=O)Oc1c(COC(=O)/C=C/C(=O)O)c(O)c(C(=O)O)c(C)c1O2 | -0.159
CN(C)CCOC(=O)COc1ccc(Cl)cc1 | 2.79
C[C@H]1C[C@@H]2[C@H]([C@@H](O)C[C@@]3(C)[C@H]2CC[C@]3(O)C(=O)COC(=O)CCC(=O)O)[C@@]2(C)C=CC(=O)C=C12 | 1.84
Nc1cc(-c2ccncc2)c[nH]c1=O | 2.39
CC(N)C12CC3CC(CC(C3)C1)C2 (centres undefined) | 0.285
COC(=O)C(N)CS (centres undefined) | 2
O=C(CC(=O)c1ccccc1)c1ccccc1 | 1.49
Cn1c([N+](=O)[O-])cnc1COC(N)=O | 1.2
NC(N)=O | -1.16
CN(C)[C@@H]1C(O)=C(C(N)=O)C(=O)[C@@]2(O)C(O)=C3C(=O)c4c(O)ccc(Cl)c4[C@@H](O)[C@H]3C[C@@H]12 | -3.01
CC(Oc1ccccc1)C(=O)N[C@@H]1C(=O)N2[C@@H]1SC(C)(C)[C@@H]2C(=O)O (some centres undefined) | -0.956
C[C@@H]1CC[C@@]2(OC1)O[C@H]1C[C@H]3[C@@H]4CC[C@@H]5C[C@@H](O)CC[C@]5(C)[C@H]4CC[C@]3(C)[C@H]1[C@@H]2C | 1.5
N[C@@H](C(=O)N[C@@H]1C(=O)N2C(C(=O)O)=C(Cl)CS[C@H]12)c1ccccc1 | -1.35
OCC(O)C(O)C(O)C(O)C(O)CO (centres undefined) | 1.73
COc1cc(O)c(C)c(O)c1 | 0.537
C[C@H](CCC(=O)O)[C@H]1CC[C@H]2[C@@H]3CC[C@@H]4CCCC[C@]4(C)[C@H]3CC[C@]12C | 1.76
N=C(N)NC(=O)c1nc(Cl)c(N2CCCCCC2)nc1N | 1.74
CCOC(=O)[C@H](CCc1ccccc1)N[C@@H](C)C(=O)N1CCC[C@H]1C(=O)O | 1.48
CC(=O)N[C@@H](Cc1ccccc1)C(=O)O | 1.15
Cn1nnnc1SCC1=C(C(=O)O)N2C(=O)[C@@H](NC(=O)[C@H](OC=O)c3ccccc3)[C@H]2SC1 | -0.12
CN(C)CCCO[C@@H]1[C@H]2OC(C)(C)O[C@H]2O[C@@H]1[C@H](O)CO | -3.16

Given tab-delimited: entries from further up.
SMILES	AlphaScreen HuR-RNA complex signal Z-score
N=C(N)NC(=O)c1nc(Cl)c(N2CCCCCC2)nc1N	1.74
CCOC(=O)[C@H](CCc1ccccc1)N[C@@H](C)C(=O)N1CCC[C@H]1C(=O)O	1.48

(next part)

SMILES | AlphaScreen HuR-RNA complex signal Z-score
C[C@]12CC[C@@H]3c4ccc(O)cc4CC[C@H]3[C@@H]1C[C@@H](O)[C@@H]2O | -1.97
CCOc1ccc(C(=O)c2ccc(O)c(O)c2O)cc1 | 2.31
CCCCC(=O)O[C@]1(C(=O)CO)CC[C@H]2[C@@H]3CCC4=CC(=O)CC[C@]4(C)[C@H]3[C@@H](O)C[C@@]21C | 1.65
CCc1cccc2c3c([nH]c12)C(CC)(CC(=O)O)OCC3 (centres undefined) | 0.518
Cc1noc(NS(=O)(=O)c2ccc(N)cc2)c1C | 24.3
CC1=C(CC(=O)O)c2cc(F)ccc2/C1=C\c1ccc([S+](C)[O-])cc1 (centres undefined) | 9.61
Cc1cc(-n2c(=O)[nH]c(=O)n(C)c2=O)ccc1Oc1ccc(SC(F)(F)F)cc1 | 1.85
CC(C)CCC[C@@H](C)[C@H]1CC[C@H]2[C@@H]3C(=O)C=C4C[C@@H](O)CC[C@]4(C)[C@H]3CC[C@]12C | -1.78
Cc1ccccc1N1C(=O)c2cc(S(N)(=O)=O)c(Cl)cc2NC1C (centres undefined) | -0.61
CO[C@H]1[C@H](O)[C@@H](O)[C@H](O)[C@H](O)[C@H]1O | 1.19
COc1ccc(-c2coc3c(OC)c(OC)cc(O)c3c2=O)cc1 | 1.99
COc1ccc2c(c1)OCC(Cc1ccc(OC)c(OC(C)=O)c1)C2=O (centres undefined) | 1.74
OCCOCCN1CCN(C(c2ccccc2)c2ccc(Cl)cc2)CC1 (centres undefined) | -1.54
CC(CCC(=O)O)[C@H]1CCC2C3CC[C@@H]4CC(=O)CC[C@]4(C)C3C=C[C@@]21C (some centres undefined) | 1.51
CC(=O)O[C@H]1C[C@@H](OC(C)=O)C(C)(C)C2C[C@@H](O)[C@]3(C)C(CC[C@@]4(C)[C@H](c5ccoc5)OC(=O)[C@H]5O[C@]543)[C@]21C (some centres undefined) | -0.983
O=C(O)c1cc(O)c(=O)c2c(O)c(O)ccc2c1 | 2.7
CC(=O)Nc1ccc(O)cc1 | 0.315
CC(=O)Oc1c(C)c(C)c2c(c1C)CCC(C)(CCCC(C)CCCC(C)CCCC(C)C)O2 (stereo not drawn) [alpha-TOCHOPHERYL ACETATE] | 0.378
C=CCSCC(N)C(=O)O (centres undefined) | 2.56
COC(=O)[C@@H]1OC(=O)C2OC23[C@@]1(C)CCC1[C@]2(C)C(C[C@H](O)[C@]13C)C(C)(C)[C@H](OC(C)=O)C[C@@H]2OC(C)=O (stereo partly drawn) [7beta-HYDROXY-7-DESACETOXYKHIVORINIC ACID, METHYL ESTER] | 2.13
COC(=O)C(C)c1ccc(C(=O)c2cccs2)cc1 (centres undefined) | 2.13
COc1ccc2[nH]c([S+]([O-])Cc3ncc(C)c(OC)c3C)nc2c1 (centres undefined) | 1.15
CCCCC(CC)CN=C(N)N=C(N)NCCCCCCNC(N)=NC(N)=NCC(CC)CCCC (centres undefined) | 2.78
CN(C)[C@@H]1C(O)=C(C(N)=O)C(=O)[C@@]2(O)C(O)=C3C(=O)c4c(O)ccc(Cl)c4[C@@](C)(O)[C@H]3C[C@@H]12 | -3.62

5 records picked at random from the list so far, as already listed:
SMILES | AlphaScreen HuR-RNA complex signal Z-score
Cc1cc(-n2c(=O)[nH]c(=O)n(C)c2=O)ccc1Oc1ccc(SC(F)(F)F)cc1 | 1.85
CC(C)CCC[C@@H](C)[C@H]1CC[C@H]2[C@@H]3C(=O)C=C4C[C@@H](O)CC[C@]4(C)[C@H]3CC[C@]12C | -1.78
CCOc1ccc(C(=O)c2ccc(O)c(O)c2O)cc1 | 2.31
OCCOCCN1CCN(C(c2ccccc2)c2ccc(Cl)cc2)CC1 (centres undefined) | -1.54
CCCCC(CC)CN=C(N)N=C(N)NCCCCCCNC(N)=NC(N)=NCC(CC)CCCC (centres undefined) | 2.78

(cont.)

SMILES | AlphaScreen HuR-RNA complex signal Z-score
O=C1OC2(c3ccc(O)cc3Oc3cc(O)ccc32)c2ccccc21 | 0.868
CC(=O)OCC1=C(C(=O)O)N2C(=O)[C@@H](NC(=O)CSc3ccncc3)[C@H]2SC1 | -3.52
C[C@]12CC[C@@H]3c4ccc(O)cc4CC[C@H]3[C@@H]1CCC2=O | -3.2
CC(=O)OCC(=O)[C@@]1(O)CC[C@H]2[C@@H]3C[C@H](C)C4=CC(=O)C=C[C@]4(C)[C@H]3[C@@H](O)C[C@@]21C [6alpha-METHYLPREDNISOLONE ACETATE] | 1.54
COc1cnc(NS(=O)(=O)c2ccc(N)cc2)nc1 | 1.16
O=C(O)CCC(=O)Nc1ccc(S(=O)(=O)Nc2nccs2)cc1 | 1.37
Cc1cccc(CN2CCN(C(c3ccccc3)c3ccc(Cl)cc3)CC2)c1 (centres undefined) | -0.578
O=c1c2cc(O)c(O)cc2oc2cc(O)c([C@@H]3O[C@H](CO)[C@@H](O)[C@H](O)[C@H]3O)c(O)c12 | 0.338
C=C1C[C@]23C[C@@]1(O)CC[C@H]2[C@@]12C=C[C@H](O)[C@@](C)(C(=O)O1)[C@H]2[C@@H]3C(=O)O | 1.06
COc1ccc(-c2cc(=O)c3c(O)cc(O[C@@H]4O[C@H](CO[C@@H]5O[C@@H](C)[C@H](O)[C@@H](O)[C@H]5O)[C@@H](O)[C@H](O)[C@H]4O)cc3o2)cc1O | 0.574
COC(=O)C[C@H]1C(C)(C)[C@@H](O)[C@@H]2CC3=C4CC(O)O[C@@H](c5ccoc5)[C@]4(C)CCC3[C@@]1(C)C2=O (stereo partly drawn) [3,16-DIDEOXYMEXICANOLIDE-3beta-DIOL] | 0.289
NC(=O)NC(=O)Cc1ccccc1 | 8.06
COc1cc(C)c(C(=O)Oc2cc(C)c(C(=O)O)c(O)c2C)c(O)c1C=O | 0.636
c1ccc2[nH]c(-c3cscn3)nc2c1 | 18.9
OC[C@@H](O)[C@@H](O[C@@H]1O[C@H](CO)[C@H](O)[C@H](O)[C@H]1O)[C@H](O)[C@@H](O)CO | -4.58
CN1[C@@H](CC(=O)c2ccccc2)CCC[C@H]1C[C@H](O)c1ccccc1 | 1.4
C=C1C(=O)O[C@@H]2C[C@@]3(C)CCC[C@H](C)C3=C[C@H]12 | 0.57
COc1ccc(C(=O)/C=C/c2ccccc2)cc1 | 0.587
CNCCC(Oc1ccc(C(F)(F)F)cc1)c1ccccc1 (centres undefined) | 1.37
CCCCCCCCCCCCC[N+](C)(C)Cc1ccccc1 | 0.476
O=S(=O)(O)CCS | 1.73
CCn1cc(C(=O)O)c(=O)c2cnc(N3CCCC3)nc21 | -3.88
CC(C)(C)NC[C@H](O)c1ccc(O)c(CO)c1 | 3.1
CCCCNC(=O)NS(=O)(=O)c1ccc(C)cc1 | -0.675

SMILES | AlphaScreen HuR-RNA complex signal Z-score
O=C(O)c1cc(-c2ccc(F)cc2F)ccc1O | -6.16
COc1ccc(-c2oc3ccccc3c(=O)c2O)cc1OC | 1.94
CC(=O)[C@H]1CC[C@H]2[C@@H]3C[C@H](C)C4=CC(=O)CC[C@]4(C)[C@H]3[C@@H](O)C[C@]12C | 2.03
COC(=O)c1c(C)cc(O)cc1O | 1.04
CC1(C)NC(=O)N(c2ccc([N+](=O)[O-])c(C(F)(F)F)c2)C1=O | 1.2
CCCCCCc1ccc(O)cc1O | -2.48
COC(=O)[C@@H]1[C@H]2C[C@H]3c4[nH]c5ccccc5c4CCN3C[C@@H]2CC[C@@H]1O | -0.321
C=C(C)[C@@H]1CC=C(C(=O)O)CC1 | -0.246
C[C@]12C=CC(=O)C=C1CC[C@@H]1[C@@H]2[C@@H](O)C[C@@]2(C)[C@H]1CC[C@]2(O)C(=O)COC(=O)CCC(=O)O | 1.12
COC(=O)C[C@H]1C(C)(C)C(=O)[C@@H]2CC3=C4CC(=O)O[C@@H](c5ccoc5)[C@]4(C)CC[C@@H]3[C@@]1(C)C2=O | 1.78
COc1ccc(C(=O)CC(=O)O)c2c1C=CC(C)(C)O2 | 0.486
CC(C)=CCC[C@](C)(O)C1CC=C(C)CC1 (some centres undefined) | 2.37
Sc1nc2ccccc2s1 | 2.4
COc1ccc2cc1Oc1ccc(cc1)C[C@H]1c3cc(c(OC)cc3CCN1C)Oc1c(OC)c(OC)cc3c1[C@H](C2)N(C)CC3 | -3.07
CCS(=O)(=O)CCn1c([N+](=O)[O-])cnc1C | 0.34
COc1cc(OC)c2c(c1)OC(c1ccccc1)CC2=O (centres undefined) | 0.201
CCCCOc1cc(C(=O)NCCN(CC)CC)c2ccccc2n1 | 0.709
C[C@@]12C[C@@]3(O)O[C@@H](O1)[C@]1(COC(=O)c4ccccc4)[C@H]3C[C@@]12O[C@@H]1O[C@H](CO)[C@@H](O)[C@H](O)[C@H]1O | -0.295
O=[N+]([O-])c1cccc2c(Br)[nH]nc12 | 2.52
NC1(C(=O)O)CCC1 | 0.873
N=C(N)NC(=O)c1nc(Cl)c(N)nc1N | 0.31
CC(=O)O[C@H]1CC[C@]2(C)C(C[C@@H](OC(C)=O)[C@]3(C)C4=CC(=O)O[C@H](c5ccoc5)[C@@]4(C)CCC23)C1(C)C (stereo partly drawn) [3-DEOXO-3beta-ACETOXYDEOXYDIHYDROGEDUNIN] | 1.28
